Survivor count and T/C data for 28 compounds are collected here from PubChem BioAssay AID328 (DTP/NCI, 2004).

This test deals with BDF1 mice, P388 leukemia ip, median survival T/C. Put plainly: NCI In Vivo Anticancer Drug Screen. Data for tumor model P388 Leukemia (intraperitoneal) in B6D2F1 (BDF1) mice. The following applies: higher T/C = longer survival. Put shortly: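 Antitumour effect was judged in vivo: survival in drug-treated mice, normalised to that of vehicle-dosed controls, gives the reported T/C.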

The mark [1] stands for this setting: T/C endpoint: median survival time, dose: 100.0 mg/kg/injection, schedule: Q01DX009 (ip), vehicle: saline with Tween-80.
Setting [2] is: T/C endpoint: median survival time, dose: 200.0 mg/kg/injection, schedule: Q01DX009 (ip), vehicle: saline with Tween-80.
[3] abbreviates: T/C endpoint: median survival time, dose: 400.0 mg/kg/injection, schedule: Q01DX009 (ip), vehicle: saline with Tween-80.
The mark [4] stands for this setting: T/C endpoint: median survival time, dose: 50.0 mg/kg/injection, schedule: Q01DX009 (ip), vehicle: Klucel (hydroxypropylcellulose) (HPC).

The list does not hold the whole screen: it gathers tests that were run many times, whatever their T/C, doses with no T/C, and many T/C values between a quarter and a half above the control. Further doses and runs are listed elsewhere. T/C gives the treated animals as a percentage of the vehicle group. Some doses have a count of surviving animals in place of a T/C: the source holds a T/C of zero for them, seemingly a mark for toxic or unscored doses. Some survivor counts are full or nearly so, which does not show that the dose was tolerated: survival well below the control is almost never listed, so the zero probably covers shortened survival too. Counts of survivors are from the toxicity check (mostly the fifth day) where no day follows; animals may have died later. Schedule codes are those of the source, taken here to give the interval after Q, in days (D) or hours (H), and the number of doses after X. Some molecules as drawn cover several salts, stereoisomers or complexes of the source; a dose is that of the sample tested. Brackets with × say how often a value occurs here. Some entries hold several experiments; the values are given in rising order. For survival time, this PubChem deposit counts one and a half times the control or more as active, and values a quarter to a half above the control carry no call in these data; other NCI protocols may use other cut-offs. Some T/C values are followed by the survivors on the day toxicity was checked, most often the fifth; without a count, all were alive then.

For `O=C(c1ccccc1)c1c2ccccc2c(C(=O)c2ccccc2)c2ccccc12`, the survivor count (T/C endpoint: median survival time, dose: 400.0 mg/kg/injection, schedule: Q01DX009 (ip), vehicle: Klucel (hydroxypropylcellulose) (HPC)) was 4 of 6.
Regarding `CC1(C)CN(Cc2ccccc2)C(C)(C)CN1N`, under setting [1], the survivor count is listed as 3 of 6.
As for `C/C=C/c1cc2c(c(=O)o1)C(=O)[C@@H](O)[C@H](C)O2`, the T/C (T/C endpoint: mean survival time, dose: 50.0 mg/kg/injection, schedule: Q01DX010 (ip), vehicle: carboxymethylcellulose (CMC)) was 133 % of control; the T/C (T/C endpoint: mean survival time, dose: 100.0 mg/kg/injection, schedule: Q01DX010 (ip), vehicle: carboxymethylcellulose (CMC)) is 139 % of control; the T/C (T/C endpoint: median survival time, dose: 16.0 mg/kg/injection, schedule: Q01DX010 (ip), vehicle: other) was 130 % of control. Further, the survivor count is 0 of 6 (T/C endpoint: mean survival time, dose: 200.0 mg/kg/injection, schedule: Q01DX010 (ip), vehicle: carboxymethylcellulose (CMC)) and 0 of 6 (T/C endpoint: median survival time, dose: 200.0 mg/kg/injection, schedule: Q01DX010 (ip), vehicle: other).
Regarding `[NH-]C(CCC(N)=O)C(=O)O.[NH-]C(CCCCN)C(=O)O.[Zn+2]` (stereo not drawn), the survivor count is 3 of 5 (T/C endpoint: median survival time, dose: 100.0 mg/kg/injection, schedule: Q01DX005 (ip), vehicle: saline) and 0 of 5 (T/C endpoint: median survival time, dose: 200.0 mg/kg/injection, schedule: Q01DX005 (ip), vehicle: saline).
As for `O=C1CC/C(=N\O)N1`, under “T/C endpoint: median survival time, dose: 300.0 mg/kg/injection, schedule: Q01DX009 (ip), vehicle: saline”, the survivor count is listed as 7 of 7.
With `Cc1c[n+]2ccccc2n1C`, the survivor count (T/C endpoint: median survival time, dose: 25.0 mg/kg/injection, schedule: Q01DX009 (ip), vehicle: saline) was 6 of 6; the survivor count (T/C endpoint: median survival time, dose: 50.0 mg/kg/injection, schedule: Q01DX009 (ip), vehicle: saline) is recorded as 6 of 6; the survivor count (T/C endpoint: median survival time, dose: 100.0 mg/kg/injection, schedule: Q01DX009 (ip), vehicle: saline) was 0 of 6 and 5 of 6; the survivor count (T/C endpoint: median survival time, dose: 200.0 mg/kg/injection, schedule: Q01DX009 (ip), vehicle: saline) was 0 of 6 (2×).
On to `CCCCOCN(COCCCC)C12CC3CC(CC(C3)C1)C2`, for which the T/C is 130 % of control under setting [1] and 136 % of control under setting [2].
For the compound `O=S(=O)(O)c1ccc(O)cc1`, the survivor count (T/C endpoint: median survival time, dose: 400.0 mg/kg/injection, schedule: Q01DX009 (ip), vehicle: saline) is listed as 6 of 6.
As to `O=C1NN=C(c2ccc(Br)cc2)CS1`, the survivor count under setting [2] is on record as 4 of 6 and the survivor count under setting [3] is 1 of 6.
`CC(=O)OCC(=O)[C@@]1(O)CC[C@H]2[C@@H]3C[C@H](F)C4=CC(=O)CC[C@]4(C)[C@H]3[C@@H](O)C[C@@]21C`: the survivor count under setting [1] is recorded as 5 of 6, the survivor count under setting [2] is on record as 5 of 6 and the survivor count under setting [3] is 3 of 6.
As for `CC(=O)Nc1cccc(Cl)c1C`, the T/C is 145 % of control (T/C endpoint: median survival time, dose: 25.0 mg/kg/injection, schedule: Q01DX009 (ip), vehicle: saline with Tween-80) and 136 % of control under setting [1].
For the compound `CC(=O)C(=Cc1c[nH]c2ccccc12)C(C)=O`, the survivor count under setting [4] is on record as 6 of 6. In addition, the T/C is 135 % of control (T/C endpoint: median survival time, dose: 50.0 mg/kg/injection, schedule: Q04DX003 (ip), vehicle: water) and 125 % of control (T/C endpoint: median survival time, dose: 400.0 mg/kg/injection, schedule: Q04DX003 (ip), vehicle: water).
In the case of `Cc1nn(CCO)c(-c2ccccc2)c1-n1on1-c1c(C)nn(CCO)c1-c1ccccc1`, the survivor count under setting [1] is given as 6 of 6 and the survivor count under setting [2] is 5 of 6.
For `CCOC(=O)c1cnc(=O)[nH]c1N`, in that order: 5 of 6 and 5 of 6.
For the compound `CCN(CC)C(=O)c1ccc(C(Cl)(Cl)Cl)cc1`, the T/C by setting is: under setting [2], 136 % of control; (T/C endpoint: median survival time, dose: 400.0 mg/kg/injection, schedule: Q04DX003 (ip), vehicle: Klucel (hydroxypropylcellulose) (HPC)) 125 % of control; (T/C endpoint: median survival time, dose: 400.0 mg/kg/injection, schedule: Q04DX003 (ip), vehicle: saline sonified) 127 % of control. Moreover, the survivor count under setting [2] was 3 of 3.
Consider `O=c1oc2ccccc2n1Cc1ccc(Cl)cc1`, for which the survivor count (T/C endpoint: median survival time, dose: 12.5 mg/kg/injection, schedule: Q01DX005 (ip), vehicle: saline with Tween-80) was 5 of 5; the survivor count (T/C endpoint: median survival time, dose: 50.0 mg/kg/injection, schedule: Q01DX005 (ip), vehicle: saline with Tween-80) is 3 of 5; the survivor count (T/C endpoint: median survival time, dose: 100.0 mg/kg/injection, schedule: Q01DX005 (ip), vehicle: saline with Tween-80) is 5 of 5.
For the compound `COC(=O)C12OCC34C(CC5=C(C)C(=O)C(O)=CC5(C)C3C(O)C1O)OC(=O)C(OC(=O)c1ccccc1)C24` (stereo not drawn), the T/C (T/C endpoint: median survival time, dose: 0.4 mg/kg/injection, schedule: Q01DX009 (ip), vehicle: saline + alcohol) was 133 % of control.
For the compound `FC(F)(F)c1nnn[n-]1.[Au+].c1ccc([PH+](c2ccccc2)c2ccccc2)cc1`, the survivor count (T/C endpoint: median survival time, dose: 100.0 mg/kg/injection, schedule: Q01DX001 (ip), vehicle: saline with Tween-80) is 0 of 6.
`CCOC(=O)C(Br)C(=O)OCC`: the survivor count is 5 of 6 (T/C endpoint: median survival time, dose: 75.0 mg/kg/injection, schedule: Q04DX003 (ip), vehicle: saline); 1 of 6 (T/C endpoint: median survival time, dose: 115.0 mg/kg/injection, schedule: Q04DX003 (ip), vehicle: saline); 0 of 6 (T/C endpoint: median survival time, dose: 170.0 mg/kg/injection, schedule: Q04DX003 (ip), vehicle: saline).
Regarding `CC(=O)Oc1ccc(/C=N/NC(N)=S)nc1`, the T/C runs as follows: (T/C endpoint: median survival time, dose: 0.56 mg/kg/injection, schedule: Q01DX009 (ip), vehicle: saline with Tween-80) 131 % of control; (T/C endpoint: median survival time, dose: 0.88 mg/kg/injection, schedule: Q01DX009 (ip), vehicle: saline with Tween-80) 138 % of control; (T/C endpoint: median survival time, dose: 1.33 mg/kg/injection, schedule: Q01DX009 (ip), vehicle: saline with Tween-80) 145 % of control; (T/C endpoint: median survival time, dose: 2.0 mg/kg/injection, schedule: Q01DX009 (ip), vehicle: saline with Tween-80) 141 % of control. The survivor count under setting [3] was 6 of 6.
For the compound `O=C(NCCCCN1CC1)C(=O)NCCCCN1CC1`, the survivor count (T/C endpoint: median survival time, dose: 50.0 mg/kg/injection, schedule: Q04DX003 (ip), vehicle: Klucel (hydroxypropylcellulose) (HPC)) is on record as 4 of 6.
`N#CC(C#N)=Cc1cccc([N+](=O)[O-])c1`: the survivor count was 6 of 6 (T/C endpoint: median survival time, dose: 25.0 mg/kg/injection, schedule: Q04DX003 (ip), vehicle: Klucel (hydroxypropylcellulose) (HPC)) and 5 of 6 under setting [4]. Further, the T/C reads like this: under setting [4], 125 % of control [5 of 6 alive]; (T/C endpoint: median survival time, dose: 100.0 mg/kg/injection, schedule: Q01DX009 (ip), vehicle: Klucel (hydroxypropylcellulose) (HPC)) 145 % of control [5 of 6 alive].
Take `CCC(NC(N)=O)C(CC)NC(N)=O` (stereo not drawn): under setting [1], the T/C was 137 % of control and the survivor count was 2 of 6. Besides, the survivor count under setting [2] was 4 of 6.
For the compound `NNC(=O)c1ccc(Cl)c(Cl)c1`, the survivor count by setting is: under setting [2], 3 of 6; (T/C endpoint: median survival time, dose: 400.0 mg/kg/injection, schedule: Q01DX001 (ip), vehicle: saline sonified) 0 of 6.
As for `CC(C)NCc1ccccc1Sc1ccccc1CNC(C)C`, the survivor count by setting is: (T/C endpoint: median survival time, dose: 200.0 mg/kg/injection, schedule: Q01DX001 (ip), vehicle: saline with Tween-80) 0 of 6; (T/C endpoint: median survival time, dose: 200.0 mg/kg/injection, schedule: Q04DX002 (ip), vehicle: saline) 1 of 6; (T/C endpoint: median survival time, dose: 400.0 mg/kg/injection, schedule: Q01DX001 (ip), vehicle: saline with Tween-80) 0 of 6; (T/C endpoint: median survival time, dose: 400.0 mg/kg/injection, schedule: Q04DX002 (ip), vehicle: saline) 0 of 6.
For the compound `CCC(C)C1(C)OC1C(=O)OC` (stereo not drawn), under setting [1], the survivor count is recorded as 6 of 6.
For the compound `CCCCNC(C)(C)C(SSSC(C)=O)c1ccco1` (stereo not drawn), the survivor count runs as follows: (T/C endpoint: median survival time, dose: 6.25 mg/kg/injection, schedule: Q01DX009 (ip), vehicle: saline with Tween-80) 6 of 6; (T/C endpoint: median survival time, dose: 12.5 mg/kg/injection, schedule: Q01DX009 (ip), vehicle: saline with Tween-80) 6 of 6; under setting [1], 4 of 6.
`C(CCC1CO1)CC1CO1` (stereo not drawn): the survivor count (T/C endpoint: median survival time, dose: 200.0 mg/kg/injection, schedule: Q04DX002 (ip), vehicle: saline with Tween-80) was 6 of 6 and the survivor count (T/C endpoint: median survival time, dose: 400.0 mg/kg/injection, schedule: Q04DX002 (ip), vehicle: saline with Tween-80) is recorded as 6 of 6.
